No constants are given. Whether binding was seen depends on the method and setting. In cells and extracts the contact can be indirect. Some results given as binding are weak or reduced against the parent protein; the word gives no strength. One block for each molecule: values may come before it.
Biological target: T1, Mia40 (baker's yeast (in mitochondria of strains derived from YPH499)) (UniProt P36046)
T1 sequence: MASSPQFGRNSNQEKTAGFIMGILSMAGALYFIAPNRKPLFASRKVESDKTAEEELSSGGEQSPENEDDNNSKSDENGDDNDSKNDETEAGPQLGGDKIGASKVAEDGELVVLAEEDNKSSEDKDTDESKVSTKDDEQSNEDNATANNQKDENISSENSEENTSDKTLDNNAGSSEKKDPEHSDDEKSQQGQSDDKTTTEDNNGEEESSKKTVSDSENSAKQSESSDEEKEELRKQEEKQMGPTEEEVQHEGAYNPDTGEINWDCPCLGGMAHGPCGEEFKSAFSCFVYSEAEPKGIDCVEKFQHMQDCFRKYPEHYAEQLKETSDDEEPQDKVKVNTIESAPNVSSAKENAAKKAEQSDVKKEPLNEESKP
Test: co-IP; 35S-labelled proteins imported for 2 min into isolated Mia40-upregulated mitochondria; mitochondria treated with 150 mM NEM and lysed; immunoprecipitation with Mia40-specific antibodies or preimmune serum; SDS-PAGE with or without beta-mercaptoethanol, autoradiography (detects mixed disulfides)

binding: no binding
Molecule: IMS-targeted Dre2 (from UniProt P36046 1-70; P36152 1-348)

binding: binds
B1: Tim9 (protein, UniProt O74700 1-87)
chain: MDALNSKEQQEFQKVVEQKQMKDFMRLYSNLVERCFTDCVNDFTTSKLTNKEQTCIMKCSEKFLKHSERVGQRFQEQNAALGQGLGR
modifications: 35S-methionine (radiolabel)
